# Measurements reported in PubChem BioAssay AID1117319 (Southern Research Institute, 2015).
# Chains of the proteins cited; added tags and fusions are not shown. Lines headed by an entry give the natural chain unless they say otherwise; changes in a name come on top.
# UniProt P69720: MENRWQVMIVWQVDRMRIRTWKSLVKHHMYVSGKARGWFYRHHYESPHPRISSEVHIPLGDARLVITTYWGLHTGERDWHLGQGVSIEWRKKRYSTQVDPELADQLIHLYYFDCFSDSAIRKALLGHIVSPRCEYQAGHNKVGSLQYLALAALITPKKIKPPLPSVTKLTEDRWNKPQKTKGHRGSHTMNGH
# UniProt P69721: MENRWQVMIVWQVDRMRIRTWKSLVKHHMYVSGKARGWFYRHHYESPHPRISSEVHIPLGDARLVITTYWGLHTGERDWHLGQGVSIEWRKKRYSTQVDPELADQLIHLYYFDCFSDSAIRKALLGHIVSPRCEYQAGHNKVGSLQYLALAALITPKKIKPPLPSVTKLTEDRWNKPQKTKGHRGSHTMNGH
# UniProt P69722: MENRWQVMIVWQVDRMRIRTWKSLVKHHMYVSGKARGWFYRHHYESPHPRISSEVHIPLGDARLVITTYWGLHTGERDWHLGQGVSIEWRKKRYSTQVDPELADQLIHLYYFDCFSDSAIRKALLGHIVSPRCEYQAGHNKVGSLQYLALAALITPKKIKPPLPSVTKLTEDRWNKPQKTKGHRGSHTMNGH
# UniProt P69723: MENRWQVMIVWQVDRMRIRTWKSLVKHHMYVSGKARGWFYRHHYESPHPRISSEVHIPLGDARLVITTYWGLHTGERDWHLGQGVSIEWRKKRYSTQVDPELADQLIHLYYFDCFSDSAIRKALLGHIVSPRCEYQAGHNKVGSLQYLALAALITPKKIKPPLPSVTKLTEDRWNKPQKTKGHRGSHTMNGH
# UniProt Q9HC16: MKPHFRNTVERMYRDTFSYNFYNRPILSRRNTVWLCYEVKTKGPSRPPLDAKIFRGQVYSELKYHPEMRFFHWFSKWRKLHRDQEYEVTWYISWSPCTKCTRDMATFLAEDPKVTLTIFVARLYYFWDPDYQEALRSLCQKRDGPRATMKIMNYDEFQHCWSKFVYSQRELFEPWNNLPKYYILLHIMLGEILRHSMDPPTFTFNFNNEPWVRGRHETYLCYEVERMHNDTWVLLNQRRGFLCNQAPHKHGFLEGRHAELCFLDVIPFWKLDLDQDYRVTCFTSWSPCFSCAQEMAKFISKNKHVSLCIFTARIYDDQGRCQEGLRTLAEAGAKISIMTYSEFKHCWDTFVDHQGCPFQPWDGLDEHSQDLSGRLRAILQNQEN
# Among all 260,000 compounds or so, about 1,500 (0.58%) were called active. This list was built around the results that the source calls inconclusive (neither active nor inactive); the mix of calls is not that of the screen.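 How the source made its calls: active means inhibition above a set limit at one or more doses, reproduced on every date tested; inconclusive means results disagree between test dates, or hit never tested in dose response; inactive means the rest.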
# Target: Virion infectivity factor (Human immunodeficiency virus type 1 group M subtype B (isolate BH10)) + Virion infectivity factor (Human immunodeficiency virus type 1 group M subtype B (isolate BRU/LAI)) + Virion infectivity factor (Human immunodeficiency virus type 1 group M subtype B (isolate PCV12)) + Virion infectivity factor (Human immunodeficiency virus type 1 group M subtype B (isolate HXB2)) + DNA dC->dU-editing enzyme APOBEC-3G (Homo sapiens) (UniProt P69720+P69721+P69722+P69723+Q9HC16)
# Assay: inhibitors of Vif binding to APOBEC3G peptide, primary screen, biochemical, TR-FRET, GST-Vif 1-94, biotin-A3G peptide, dose response retest (AID 1117319);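 further: Vif residues 1-94 fused to GST binding biotinylated APOBEC3G peptide 110-148; 0% = full assay without inhibitor and 100% = GST in place of GST-Vif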
# Conditions: hits give high values
row,Compound,inhibition
1,CC1=NNC(=O)C1CC(=O)N/N=C/c1ccncc1 (stereo unspecified),inconclusive: 40.6%
2,Cc1cc(-c2nc3ncccc3o2)ccc1N,inconclusive: 33.6%
3,CCOC(=O)COc1ccc(/C=C/[N+](=O)[O-])c(OCC(=O)OCC)c1,inconclusive: 60.3%
4,O=C(O)C1CCCCC1C(=O)NCCC(c1ccccc1)c1ccccc1 (stereo unspecified),inconclusive: 41.5%
5,O=C(c1cc(-c2ccco2)nc2ccccc12)N1CCCC(C(F)(F)F)C1 (stereo unspecified),inconclusive: 37.4%
6,Cc1onc(-c2c(F)cccc2Cl)c1C(=O)N=C(N)N1CC(C)OC(C)C1 (stereo unspecified),inconclusive: 46.2%
7,CCOCCCNC(=O)C1c2ccccc2C(=O)N2CCc3ccccc3C12 (stereo unspecified),inconclusive: 61.1%
8,O=C(O)c1cccc2c1-c1ccc(Cl)cc1C2,inactive: -7.17%
9,O=[N+]([O-])c1ccc(Cl)c(/C=N/N2CCN(Cc3ccc(Cl)cc3)CC2)c1,inactive: -0.57%
10,O=C(OCC(=O)c1cccs1)c1ccc(NC(=O)c2ccco2)cc1,inactive: 13.8%
11,CCOC(=O)c1cc(-c2ccco2)nn1-c1ccc(C)cc1,inactive: -3.18%
12,Cc1ccc(CNC(=O)/C=C/c2c(Cl)cccc2Cl)cc1,inconclusive: 38.2%
13,O=C(O)CC(c1ccccc1)n1cnnn1 (stereo unspecified),inconclusive: 36.4%
14,COc1ccc(NC(=O)COC(=O)CCSc2ccccc2)cc1,inactive: -0.53%
15,CC(C)N(C(=O)COC(=O)c1ccc(O)cc1)C(C)C,inconclusive: 43%
16,COc1ccc(CN2CCN(Cc3ccon3)CC2CCO)c(C)c1C (stereo unspecified),inconclusive: 45.7%
17,CCCCn1nnnc1SCC(=O)Nc1ccc(N(C)C)cc1,inconclusive: 45.8%
18,Cc1cccc(NC(=S)NC(=O)c2cccs2)n1,inconclusive: 36.9%
19,CC1CCCCC1NC(=O)CN1CCC(O)(c2ccc3c(c2)OCO3)CC1 (stereo unspecified),inconclusive: 53%

# Of the compounds above, these contain a Cl atom:
row,Compound,inhibition
6,Cc1onc(-c2c(F)cccc2Cl)c1C(=O)N=C(N)N1CC(C)OC(C)C1 (stereo unspecified),inconclusive: 46.2%
8,O=C(O)c1cccc2c1-c1ccc(Cl)cc1C2,inactive: -7.17%
9,O=[N+]([O-])c1ccc(Cl)c(/C=N/N2CCN(Cc3ccc(Cl)cc3)CC2)c1,inactive: -0.57%
12,Cc1ccc(CNC(=O)/C=C/c2c(Cl)cccc2Cl)cc1,inconclusive: 38.2%

# Additional compounds.

row,Compound,inhibition
1,CC(C)c1ccc(-c2nc3c([nH]2)c(=O)n(C)c(=O)n3C)cc1,inconclusive: 35.6%
2,CCN1CCN(C(CNS(=O)(=O)c2ccc(OC)cc2)c2cccnc2)CC1 (stereo unspecified),inconclusive: 37.4%
3,Cc1ccc(C(=O)NC(=S)Nc2ccccc2C(F)(F)F)cc1C,inconclusive: 60.5%
4,Cc1c(C(=O)O)oc2c1C(=O)CC(C)(C)C2,inactive: -2.53%
5,Cc1cc(C(=O)CSc2nnc(-c3ccc(OC(F)F)cc3)o2)c(C)n1Cc1cccs1,inconclusive: 56.3%
6,COc1ccc(-n2c(Cc3cccn3C)nnc2SCC(=O)Nc2cc(Cl)ccc2OC)cc1,inconclusive: 34.2%
7,O=C(O)c1ccc(N/N=C/C2=C(N3CCOCC3)C(=C\c3ccccc3)/CC2)cc1,inconclusive: 39.5%
8,COC(=O)Cn1c(=NC(=O)C2COc3ccccc3O2)sc2cc(S(N)(=O)=O)ccc21 (stereo unspecified),inconclusive: 39.2%
9,CC(C)CC(/C(O)=C(\C#N)c1nc2ccccc2[nH]1)N1C(=O)c2ccccc2C1=O (stereo unspecified),inconclusive: 40.9%
10,CC1(C)Oc2ccc(C#N)cc2[C@@H](N2CCCC2=O)[C@@H]1O,inconclusive: 37.2%
11,CCCCCn1c(N)c(C#N)c2nc3ccccc3nc21,inconclusive: 33.9%
12,CCCNC(=O)OC[C@H]1O[C@H](CCO/N=C(\C)CCN2CCc3nc(-c4ccccc4)c(-c4ccccc4)cc3C2)C=C[C@@H]1Oc1ccc(OC)cc1,inconclusive: 38.1%
13,O=C(N/C=C/c1ccco1)Nc1cccc(Cl)c1,inconclusive: 38.7%
14,CCNc1ccc(Br)cc(C(=O)/C=C/c2c(Cl)cccc2Cl)c1=O,inconclusive: 57.3%
15,Cc1cc(-c2onc(C)c2C(=O)Nc2ccc(C(F)(F)F)cc2)no1,inconclusive: 39.1%
16,NC(=O)[C@H]1CC2(CC(c3cccc(NC(=O)COc4ccc(Cl)cc4)c3)=NO2)CN1C(=O)Cc1ccc([N+](=O)[O-])cc1 (stereo partly specified),inconclusive: 46%
17,O=C(CSc1nnc(CNC(=O)c2ccccc2)o1)Nc1ccc2c(c1)OCO2,inconclusive: 39.8%
18,CC1=C(C#N)C(c2cccnc2)C2=C(CC(C)(C)CC2=O)N1 (stereo unspecified),inconclusive: 36.8%
19,COc1cc(/C=C/C(=O)NCc2nc3ccccc3[nH]2)cc(OC)c1OC,inconclusive: 52.9%

row,Compound,inhibition
1,CCn1c(O)c(C=NC2CCCC2)sc1=S,inactive: 5.46%
2,O=C(CSc1nnc(SCC(=O)c2ccco2)s1)c1ccco1,inconclusive: 33.6%
3,O=C(COC(=O)CCCN1C(=O)c2cccc3cccc(c23)C1=O)Nc1cccc(Br)c1,inconclusive: 41%
4,COc1ccc(S(=O)(=O)NC(CC(=O)NCc2ccccc2OC)c2ccco2)cc1 (stereo unspecified),inconclusive: 51.1%
5,COc1ccc(C)cc1-n1c(-c2ccncc2)n[nH]c1=S,inconclusive: 51.8%
6,COc1ccc(C(=O)C[n+]2cn(C(F)F)c3ccccc32)c(F)c1,inconclusive: 55.3%
7,COc1cccc(CN(C(=O)c2cc3ccccc3oc2=O)C2CC2)c1,inconclusive: 21%
8,Cc1cccc(-c2nnc(SCC#N)n2-c2cccc(Cl)c2)c1,inconclusive: 34.1%
9,O=C1CCCC(O)=C1N=Nc1c(Cl)cc(Cl)cc1Cl,inconclusive: 61.5%
10,O=C(CNC(=O)c1ccco1)OCc1cccc(Cl)c1,inconclusive: 20.2%
11,CCCC(=O)Nc1ccccc1-c1nnn(CC(=O)Nc2ccc(OCC)cc2)n1,inconclusive: 42.6%
12,O=C(NN1C(=O)C2C3C=CC(C4CC34)C2C1=O)c1ccccc1Cl (stereo unspecified),inconclusive: 49.7%
13,CCc1c(C)nc(SCC(=O)NNC(=O)Cc2ccc(OC)cc2)[nH]c1=O,inconclusive: 59.5%
14,Cc1ccc(C(=O)NCCCNCCCNC(=O)c2ccc(C)nc2)cn1,inconclusive: 35.7%
15,O=C1Cc2cc(O)ccc2O1,inactive: -1.58%
16,COc1ccc2nc(COC(=O)c3cccs3)c(C(C)=O)[n+]([O-])c2c1,inconclusive: 42.9%
17,Cc1nn(CCC#N)c(N)c1C1(O)C(=O)Nc2c(Cl)cc(Cl)cc21 (stereo unspecified),inconclusive: 51.5%
18,CCOC(=O)C1=C(C)N(c2ccccc2)C(=O)/C1=C\c1ccco1,inconclusive: 34.4%
